Source: publication doi:10.1101/2021.12.21.473566
No constants are given. Whether binding was seen depends on the method and setting. Binding seen in cells or lysates may run through a third protein. Where a sequence is shown, tags or fusion partners need not be part of it.

Legend:
Assay in all cases: co-IP
[1] = target: T1, PTP1B-DA (UniProt P18031)
T1 sequence: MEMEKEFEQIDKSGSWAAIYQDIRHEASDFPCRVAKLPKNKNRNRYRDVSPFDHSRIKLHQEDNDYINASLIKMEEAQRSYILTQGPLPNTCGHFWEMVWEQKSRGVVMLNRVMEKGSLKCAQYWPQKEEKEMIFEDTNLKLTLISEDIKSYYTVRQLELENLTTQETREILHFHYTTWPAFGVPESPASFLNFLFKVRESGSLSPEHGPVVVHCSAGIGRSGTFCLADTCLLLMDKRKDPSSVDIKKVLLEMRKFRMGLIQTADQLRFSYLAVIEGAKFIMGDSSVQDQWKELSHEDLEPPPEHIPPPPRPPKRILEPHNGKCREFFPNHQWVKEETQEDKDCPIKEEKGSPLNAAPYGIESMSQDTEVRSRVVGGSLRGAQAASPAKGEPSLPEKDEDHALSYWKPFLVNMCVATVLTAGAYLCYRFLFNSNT

[2] = target: T2, PTP1B-DA-PafA-Myc (HEK293T) (UniProt P18031)
T2 sequence: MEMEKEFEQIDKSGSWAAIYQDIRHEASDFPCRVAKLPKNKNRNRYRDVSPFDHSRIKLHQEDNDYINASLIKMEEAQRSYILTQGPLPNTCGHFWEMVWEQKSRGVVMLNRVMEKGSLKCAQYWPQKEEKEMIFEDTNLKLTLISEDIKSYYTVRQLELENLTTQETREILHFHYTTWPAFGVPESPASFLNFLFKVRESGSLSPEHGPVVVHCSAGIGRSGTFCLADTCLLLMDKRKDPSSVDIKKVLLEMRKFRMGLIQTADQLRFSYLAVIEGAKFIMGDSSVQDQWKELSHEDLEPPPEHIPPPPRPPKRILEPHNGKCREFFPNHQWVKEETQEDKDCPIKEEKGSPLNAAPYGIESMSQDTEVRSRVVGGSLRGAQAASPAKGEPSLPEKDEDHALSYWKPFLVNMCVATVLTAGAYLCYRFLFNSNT

[3] = target: T3, PTP1B-WT-PafA-Myc (HEK293T) (UniProt P18031)
T3 sequence: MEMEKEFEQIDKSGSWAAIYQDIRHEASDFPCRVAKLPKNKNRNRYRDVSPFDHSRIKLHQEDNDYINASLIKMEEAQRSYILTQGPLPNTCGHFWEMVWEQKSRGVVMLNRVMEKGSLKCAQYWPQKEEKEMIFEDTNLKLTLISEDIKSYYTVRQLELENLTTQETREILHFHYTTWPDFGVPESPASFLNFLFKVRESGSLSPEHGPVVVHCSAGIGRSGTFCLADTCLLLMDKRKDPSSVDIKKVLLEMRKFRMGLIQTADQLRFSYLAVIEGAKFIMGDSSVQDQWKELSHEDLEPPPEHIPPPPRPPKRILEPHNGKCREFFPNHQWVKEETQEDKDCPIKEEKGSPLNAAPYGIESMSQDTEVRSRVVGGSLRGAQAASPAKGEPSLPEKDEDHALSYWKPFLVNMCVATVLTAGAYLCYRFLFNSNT

binding [1]: no binding
binding [2]: no binding
binding [3]: no binding
B1: THEMIS-WT-FLAG (protein, UniProt Q8N1K5 1-641)
chain: MALSLEEFVHSLDLRTLPRVLEIQAGIYLEGSIYEMFGNECCFSTGEVIKITGLKVKKIIAEICEQIEGCESLQPFELPMNFPGLFKIVADKTPYLTMEEITRTIHIGPSRLGHPCFYHQKDIKLENLIIKQGEQIMLNSVEEIDGEIMVSCAVARNHQTHSFNLPLSQEGEFYECEDERIYTLKEIVEWKIPKNRTRTVNLTDFSNKWDSTNPFPKDFYGTLILKPVYEIQGVMKFRKDIIRILPSLDVEVKDITDSYDANWFLQLLSTEDLFEMTSKEFPIVTEVIEAPEGNHLPQSILQPGKTIVIHKKYQASRILASEIRSNFPKRHFLIPTSYKGKFKRRPREFPTAYDLEIAKSEKEPLHVVATKAFHSPHDKLSSVSVGDQFLVHQSETTEVLCEGIKKVVNVLACEKILKKSYEAALLPLYMEGGFVEVIHDKKQYPISELCKQFRLPFNVKVSVRDLSIEEDVLAATPGLQLEEDITDSYLLISDFANPTECWEIPVGRLNMTVQLVSNFSRDAEPFLVRTLVEEITEEQYYMMRRYESSASHPPPRPPKHPSVEETKLTLLTLAEERTVDLPKSPKRHHVDITKKLHPNQAGLDSKVLIGSQNDLVDEEKERSNRGATAIAETFKNEKHQK
